Assay [1] deals with OCT4 wild type (human) (UniProt Q01860). Kind of assay: affinity purification with mass spectrometry; ChIP-SICAP: anti-OCT4 antibody (ab19857) on Protein G beads, DSG + formaldehyde cross-linked sonicated chromatin of human fibroblasts dox-induced 48 h with OSKM (OCT4 WT or mutant); DNA biotinylated, streptavidin capture, LC-MS/MS, label-free; filtered against the OCT4 antibody in uninfected hFibs.

Chains of the proteins cited; added tags and fusions are not shown.
UniProt Q01860: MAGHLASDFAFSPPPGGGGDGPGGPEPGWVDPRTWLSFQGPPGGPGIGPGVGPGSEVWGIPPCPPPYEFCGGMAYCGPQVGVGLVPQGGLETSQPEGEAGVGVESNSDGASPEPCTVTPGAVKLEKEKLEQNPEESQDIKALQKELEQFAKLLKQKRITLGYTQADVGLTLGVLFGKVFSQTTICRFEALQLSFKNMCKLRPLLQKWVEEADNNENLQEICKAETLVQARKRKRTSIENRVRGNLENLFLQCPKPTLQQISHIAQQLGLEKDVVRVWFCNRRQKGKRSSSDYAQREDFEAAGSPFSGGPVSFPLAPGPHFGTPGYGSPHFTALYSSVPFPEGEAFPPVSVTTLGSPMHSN
UniProt P23760: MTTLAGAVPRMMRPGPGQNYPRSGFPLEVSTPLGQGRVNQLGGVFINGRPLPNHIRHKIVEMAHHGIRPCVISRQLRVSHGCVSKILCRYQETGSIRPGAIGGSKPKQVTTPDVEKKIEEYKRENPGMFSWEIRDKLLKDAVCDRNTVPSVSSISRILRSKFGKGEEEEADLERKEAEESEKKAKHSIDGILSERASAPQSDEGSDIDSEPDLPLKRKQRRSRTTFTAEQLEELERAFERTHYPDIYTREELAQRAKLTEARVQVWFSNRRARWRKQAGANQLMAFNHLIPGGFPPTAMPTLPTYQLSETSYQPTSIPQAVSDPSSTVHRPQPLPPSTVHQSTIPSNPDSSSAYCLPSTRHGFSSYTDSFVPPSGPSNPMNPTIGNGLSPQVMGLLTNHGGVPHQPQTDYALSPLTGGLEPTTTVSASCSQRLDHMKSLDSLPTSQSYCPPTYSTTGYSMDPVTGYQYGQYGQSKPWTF
UniProt P23769: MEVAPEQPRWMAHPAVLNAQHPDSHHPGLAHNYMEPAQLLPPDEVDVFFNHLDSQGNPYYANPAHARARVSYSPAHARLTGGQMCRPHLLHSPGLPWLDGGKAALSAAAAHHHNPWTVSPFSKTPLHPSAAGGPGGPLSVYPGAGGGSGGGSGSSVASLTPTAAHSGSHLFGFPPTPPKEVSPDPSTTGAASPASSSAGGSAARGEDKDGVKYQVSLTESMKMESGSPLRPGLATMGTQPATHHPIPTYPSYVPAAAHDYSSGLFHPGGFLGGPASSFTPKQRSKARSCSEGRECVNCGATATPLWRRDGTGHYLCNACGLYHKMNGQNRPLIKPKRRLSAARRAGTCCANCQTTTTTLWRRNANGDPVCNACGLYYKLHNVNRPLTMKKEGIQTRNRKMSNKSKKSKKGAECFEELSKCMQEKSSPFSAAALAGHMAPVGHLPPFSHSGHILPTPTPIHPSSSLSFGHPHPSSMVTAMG
UniProt Q01196: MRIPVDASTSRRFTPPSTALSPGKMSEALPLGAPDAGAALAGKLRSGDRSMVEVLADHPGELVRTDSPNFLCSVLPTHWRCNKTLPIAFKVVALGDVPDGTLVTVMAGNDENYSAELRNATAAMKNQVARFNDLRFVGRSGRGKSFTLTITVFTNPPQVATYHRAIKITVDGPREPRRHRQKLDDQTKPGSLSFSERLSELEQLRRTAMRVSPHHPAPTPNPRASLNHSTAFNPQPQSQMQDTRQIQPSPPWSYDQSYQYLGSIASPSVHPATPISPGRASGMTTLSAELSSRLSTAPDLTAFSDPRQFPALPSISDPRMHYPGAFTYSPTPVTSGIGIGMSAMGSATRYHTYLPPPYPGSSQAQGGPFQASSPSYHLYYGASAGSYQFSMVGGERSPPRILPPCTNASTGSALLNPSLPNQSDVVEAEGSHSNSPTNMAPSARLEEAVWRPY
UniProt Q9Y5B9: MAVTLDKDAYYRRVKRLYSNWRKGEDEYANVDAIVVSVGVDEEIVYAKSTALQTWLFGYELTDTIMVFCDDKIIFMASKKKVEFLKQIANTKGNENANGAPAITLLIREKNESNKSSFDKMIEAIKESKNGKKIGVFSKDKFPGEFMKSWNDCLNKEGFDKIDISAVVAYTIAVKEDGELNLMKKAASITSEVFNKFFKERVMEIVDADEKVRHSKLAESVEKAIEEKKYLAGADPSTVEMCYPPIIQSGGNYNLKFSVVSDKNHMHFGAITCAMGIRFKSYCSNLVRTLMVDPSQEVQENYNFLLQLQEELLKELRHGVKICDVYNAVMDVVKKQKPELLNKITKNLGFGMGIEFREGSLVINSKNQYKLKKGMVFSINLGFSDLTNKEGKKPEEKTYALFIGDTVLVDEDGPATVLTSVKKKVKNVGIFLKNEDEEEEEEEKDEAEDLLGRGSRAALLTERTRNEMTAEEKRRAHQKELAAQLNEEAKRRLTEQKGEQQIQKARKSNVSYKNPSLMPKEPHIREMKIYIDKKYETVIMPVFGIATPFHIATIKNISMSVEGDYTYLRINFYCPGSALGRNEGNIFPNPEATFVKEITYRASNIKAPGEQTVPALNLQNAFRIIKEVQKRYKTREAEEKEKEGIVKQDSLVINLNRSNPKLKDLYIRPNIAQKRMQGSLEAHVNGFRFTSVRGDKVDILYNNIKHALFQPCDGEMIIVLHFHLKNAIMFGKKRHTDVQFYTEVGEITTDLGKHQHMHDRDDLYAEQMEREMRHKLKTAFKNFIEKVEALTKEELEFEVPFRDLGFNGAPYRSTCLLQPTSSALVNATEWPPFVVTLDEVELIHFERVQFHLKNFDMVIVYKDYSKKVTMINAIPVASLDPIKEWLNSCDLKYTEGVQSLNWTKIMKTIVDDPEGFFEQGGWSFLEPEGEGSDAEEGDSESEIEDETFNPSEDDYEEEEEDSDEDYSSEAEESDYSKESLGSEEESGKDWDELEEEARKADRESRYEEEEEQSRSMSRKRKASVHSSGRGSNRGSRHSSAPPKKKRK
UniProt Q13185: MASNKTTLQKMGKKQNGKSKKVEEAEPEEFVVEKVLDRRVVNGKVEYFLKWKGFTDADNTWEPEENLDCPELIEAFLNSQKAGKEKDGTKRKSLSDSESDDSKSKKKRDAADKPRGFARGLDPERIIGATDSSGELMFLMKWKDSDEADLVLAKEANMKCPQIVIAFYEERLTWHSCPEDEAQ

The target of assay [2] is OCT4 in hESCs (human (endogenous in hESCs)) (UniProt Q01860). Kind of assay: affinity purification with mass spectrometry; ChIP-SICAP: anti-OCT4 antibody (ab19857) on Protein G beads, DSG + formaldehyde cross-linked sonicated chromatin of hESCs; DNA biotinylated, streptavidin capture, LC-MS/MS, label-free; filtered against rabbit IgG in hESCs.

These are yes or no findings as the source states them, for the method shown. Binding seen in cells or lysates may run through a third protein. These calls come from enrichment with a bait or labelling near it, and not all partners need be listed.

For PAX3 (from UniProt P23760 1-479), in assay [1], the binding result was “binds”.
The same measure, in the same setting: for GATA2 (from UniProt P23769 1-480) the value was “binds”; for RUNX1 (from UniProt Q01196 1-453), “binds”.
In the case of SUPT16H (from UniProt Q9Y5B9 1-1047), the binding result in assay [1] and in assay [2] was “binds” in each case.
Consider CBX3 (from UniProt Q13185 1-183), for which the binding result in assay [1] and in assay [2] was “binds” in each case.

B1: L1TD1 (protein, UniProt Q5T7N2 1-865)
chain: MSDVSTSVQSKFARLAKKKENITYMKREQLTETDKDIAPVLDLKCKDVSAIMNKFKVLMEIQDLMFEEMRETLKNDLKAVLGGKATIPEVKNSENSSSRTEFQQIINLALQKTGMVGKIEGENSKIGDDNENLTFKLEVNELSGKLDNTNEYNSNDGKKLPQGESRSYEVMGSMEETLCNIDDRDGNRNVHLEFTERESRKDGEDEFVKEMREERKFQKLKNKEEVLKASREEKVLMDEGAVLTLVADLSSATLDISKQWSNVFNILRENDFEPKFLCEVKLAFKCDGEIKTFSDLQSLRKFASQKSSVKELLKDVLPQKEEINQGGRKYGIQEKRDKTLIDSKHRAGEITSDGLSFLFLKEVKVAKPEEMKNLETQEEEFSELEELDEEASGMEDDEDTSGLEEEEEEPSGLEEEEEEEASGLEEDEASGLEEEEEQTSEQDSTFQGHTLVDAKHEVEITSDGMETTFIDSVEDSESEEEEEGKSSETGKVKTTSLTEKKASRRQKEIPFSYLVGDSGKKKLVKHQVVHKTQEEEETAVPTSQGTGTPCLTLCLASPSKSLEMSHDEHKKHSHTNLSISTGVTKLKKTEEKKHRTLHTEELTSKEADLTEETEENLRSSVINSIREIKEEIGNLKSSHSGVLEIENSVDDLSSRMDILEERIDSLEDQIEEFSKDTMQMTKQIISKERQRDIEERSRSCNIRLIGIPEKESYENRAEDIIKEIIDENFAELKKGSSLEIVSACRVPSKIDEKRLTPRHILVKFWNSSDKEKIIRASRERREITYQGTRIRLTADLSLDTLDARSKWSNVFKVLLEKGFNPRILYPAKMAFDFRGKTKVFLSIEEFRDYVLHMPTLRELLGNNIP
For the molecule B1, the binding entry in assay [2] is “binds”.

B2: LIN28A (protein, UniProt Q9H9Z2 1-209)
chain: MGSVSNQQFAGGCAKAAEEAPEEAPEDAARAADEPQLLHGAGICKWFNVRMGFGFLSMTARAGVALDPPVDVFVHQSKLHMEGFRSLKEGEAVEFTFKKSAKGLESIRVTGPGGVFCIGSERRPKGKSMQKRRSKGDRCYNCGGLDHHAKECKLPPQPKKCHFCQSISHMVASCPLKAQQGPSAQGKPTYFREEEEEIHSPTLLPEAQN
For the molecule B2, in assay [2], the binding entry was “binds”.

B3: HELLS (protein, UniProt Q9NRZ9 1-838)
chain: MPAERPAGSGGSEAPAMVEQLDTAVITPAMLEEEEQLEAAGLERERKMLEKARMSWDRESTEIRYRRLQHLLEKSNIYSKFLLTKMEQQQLEEQKKKEKLERKKESLKVKKGKNSIDASEEKPVMRKKRGREDESYNISEVMSKEEILSVAKKNKKENEDENSSSTNLCVEDLQKNKDSNSIIKDRLSETVRQNTKFFFDPVRKCNGQPVPFQQPKHFTGGVMRWYQVEGMEWLRMLWENGINGILADEMGLGKTVQCIATIALMIQRGVPGPFLVCGPLSTLPNWMAEFKRFTPDIPTMLYHGTQEERQKLVRNIYKRKGTLQIHPVVITSFEIAMRDRNALQHCYWKYLIVDEGHRIKNMKCRLIRELKRFNADNKLLLTGTPLQNNLSELWSLLNFLLPDVFDDLKSFESWFDITSLSETAEDIIAKEREQNVLHMLHQILTPFLLRRLKSDVALEVPPKREVVVYAPLSKKQEIFYTAIVNRTIANMFGSSEKETIELSPTGRPKRRTRKSINYSKIDDFPNELEKLISQIQPEVDRERAVVEVNIPVESEVNLKLQNIMMLLRKCCNHPYLIEYPIDPVTQEFKIDEELVTNSGKFLILDRMLPELKKRGHKVLLFSQMTSMLDILMDYCHLRDFNFSRLDGSMSYSEREKNMHSFNTDPEVFIFLVSTRAGGLGINLTAADTVIIYDSDWNPQSDLQAQDRCHRIGQTKPVVVYRLVTANTIDQKIVERAAAKRKLEKLIIHKNHFKGGQSGLNLSKNFLDPKELMELLKSRDYEREIKGSREKVISDKDLELLLDRSDLIDQMNASGPIKEKMGIFKILENSEDSSPECLF
On to B3, for which, in assay [2], the binding entry is “binds”.

(Values after publication PMC12485055.)
